Measured values: patent publication US20080023859A1 (Toagosei Co., Ltd., priority 2003, published 2008)

Test: general procedure: Fmoc solid-phase peptide synthesis; HATU/DIEA
Conditions: conjugation step; for final HPLC purity: HPLC 0.1% TFA water:methanol=1:1

Substance | conjugation yield [%] | final HPLC purity [%]
Ac-Val-Pro-Gly-Val-Gly-Val-Pro-Gly-Val-Gly-pAP-Man | 73 | 97.2
NH2-Glu(pAP-Man)-Val-Pro-Gly-Val-Gly-Val-Pro-Gly-Val-Gly-pAP-Man | 21.3 | 95.1
NH2-Val-Pro-Gly-Val-Gly-Val-Pro-Gly-Val-Gly-pAP-Man | 4.4 | 98.3
